# Assay results taken from PubChem BioAssay AID330 (DTP/NCI, 2004).
# The list is a part of this screen's results and no random one: it is rich in T/C values a quarter to a half above the control, in often repeated tests (any T/C) and in doses without a T/C. Further doses and runs are listed elsewhere. T/C: endpoint of the treated group in % of that of the vehicle group. Some doses have a count of surviving animals in place of a T/C: the source holds a T/C of zero for them, seemingly a mark for toxic or unscored doses. Some survivor counts are full or nearly so, which does not show that the dose was tolerated: the source hardly ever lists a survival T/C far under the control, and the zero likely stands for such cases as well. Survivors were counted at the toxicity check, usually on the fifth day, unless a day is given; later deaths do not show. Schedules are NCI's codes, read here as Q, the interval in days (D) or hours (H), X, the number of doses. Some entries hold several experiments; the results are listed from low to high. Some structures stand for samples that the source files as different forms (salt, stereo form or complex); doses refer to the form tested. Signs of the kind (2×) count equal records among those shown. For survival time, the PubChem record calls one and a half times the control and up active, and a quarter to a half above the control has no call in these data; cut-offs in other NCI protocols can differ.
# System: P388 leukemia ip, CD2F1 mice, survival T/C
# Test: NCI In Vivo Anticancer Drug Screen. Data for tumor model P388 Leukemia (intraperitoneal) in CD2F1 (CDF1) mice
# Conditions: T/C endpoint: median survival time, higher T/C = longer survival
# [1] = dose: 12.5 mg/kg/injection, schedule: Q01DX009 (ip), vehicle: saline with Tween-80
# [2] = dose: 25.0 mg/kg/injection, schedule: Q01DX009 (ip), vehicle: saline with Tween-80
# [3] = dose: 50.0 mg/kg/injection, schedule: Q01DX009 (ip), vehicle: saline with Tween-80
# [4] = dose: 240.0 mg/kg/injection, schedule: Q01DX005 (ip), vehicle: saline with Tween-80
# [5] = dose: 200.0 mg/kg/injection, schedule: Q01DX009 (ip), vehicle: saline with Tween-80
# [6] = dose: 100.0 mg/kg/injection, schedule: Q01DX005 (ip), vehicle: saline with Tween-80
# [7] = dose: 200.0 mg/kg/injection, schedule: Q01DX005 (ip), vehicle: saline with Tween-80
# [8] = dose: 100.0 mg/kg/injection, schedule: Q01DX009 (ip), vehicle: saline
# [9] = dose: 200.0 mg/kg/injection, schedule: Q01DX009 (ip), vehicle: saline
# [10] = dose: 100.0 mg/kg/injection, schedule: Q01DX005 (ip), vehicle: Klucel (hydroxypropylcellulose) (HPC)
# [11] = dose: 200.0 mg/kg/injection, schedule: Q01DX005 (ip), vehicle: Klucel (hydroxypropylcellulose) (HPC)
compound,measurement,setting,value
CCCN(C)C(=O)N(CCCl)N=O,T/C,"dose: 4.0 mg/kg/injection, schedule: Q01DX001 (ip), vehicle: water",127 % of control
same,T/C,"dose: 8.0 mg/kg/injection, schedule: Q01DX001 (ip), vehicle: water",132 % of control
same,T/C,"dose: 64.0 mg/kg/injection, schedule: Q01DX001 (ip), vehicle: water",125 % of control
CCN(CC)c1ccc(/C=C/c2ccnc3ccccc23)cc1,survivor count,[1],5 of 6
same,survivor count,[2],5 of 6
same,survivor count,[3],5 of 6 and 6 of 6
same,survivor count,"dose: 80.0 mg/kg/injection, schedule: Q04DX003 (ip), vehicle: saline",6 of 6
same,survivor count,"dose: 100.0 mg/kg/injection, schedule: Q04DX003 (ip), vehicle: saline with Tween-80",5 of 6 and 6 of 6
same,survivor count,"dose: 200.0 mg/kg/injection, schedule: Q04DX003 (ip), vehicle: saline with Tween-80",6 of 6 (2×)
same,survivor count,"dose: 400.0 mg/kg/injection, schedule: Q04DX003 (ip), vehicle: saline with Tween-80",3 of 6 and 4 of 6
S=C1N(c2ccc(Cl)cc2)C2=C(N=Nc3cc(Cl)ccc3Cl)C(=Nc3ccccc3S2)N1c1ccccn1,survivor count,"dose: 120.0 mg/kg/injection, schedule: Q01DX005 (ip), vehicle: saline with Tween-80",2 of 6
same,survivor count,[4],0 of 6
C=C1C(=O)O[C@@H]2C[C@@]3(C)CCC[C@H](C)C3=C[C@H]12 (tested in a mixture with another compound),survivor count,"dose: 240.0 mg/kg/injection, schedule: Q01DX005 (ip), vehicle: saline + alcohol",0 of 6
COC(=O)/C=C(\Br)C(=O)OC,survivor count,[1],0 of 6
same,survivor count,[2],0 of 6
same,survivor count,[3],0 of 6
same,survivor count,"dose: 100.0 mg/kg/injection, schedule: Q01DX009 (ip), vehicle: saline with Tween-80",0 of 6
same,survivor count,[5],0 of 6
Cc1cccc(NCc2ccncc2)n1,survivor count,[6],0 of 6
same,survivor count,[7],0 of 6
CCOC(=O)c1cc(-c2ccccc2)c(=O)c(OC)nc1-c1ccccc1,survivor count,[6],5 of 5
same,survivor count,[7],0 of 5
N#CCc1nc2ccccc2nc1Cl,survivor count,"dose: 200.0 mg/kg/injection, schedule: Q01DX009 (ip), vehicle: distilled water + Tween-80 + alcohol",4 of 6
CC1OS(=O)(=O)CS(=O)(=O)OC1C (configuration not stated),survivor count,[4],2 of 6
O=Cc1coc2ccccc2c1=O,T/C,"dose: 50.0 mg/kg/injection, schedule: Q01DX009 (ip), vehicle: saline",132 % of control
same,T/C,[8],139 % of control
same,survivor count,[9],"1 of 6, 3 of 6, 4 of 6"
same,survivor count,"dose: 400.0 mg/kg/injection, schedule: Q01DX009 (ip), vehicle: saline",0 of 6 and 1 of 6
CCN(CC)CCNc1c(OC)cc(C)c2sc3ccccc3c(=O)c12,survivor count,[5],0 of 6
CCCCN=Cc1ccccc1O.CCCCN=Cc1ccccc1O.[Cu],survivor count,[10],3 of 6
same,survivor count,[11],0 of 6
CCCCCCCCCCCCCCN1CCSCC1,survivor count,[9],0 of 6
Cc1nc2ccccc2[n]1[Sn]([CH3])([CH3])[n]1c(C)nc2ccccc21,survivor count,[10],2 of 6
same,survivor count,[11],0 of 6
O=C1N/C(=N\c2nc3ccccc3s2)c2ccccc21,survivor count,[1],6 of 6
same,survivor count,[3],6 of 6
[O-]c1n[n+](-c2ccccc2)no1,survivor count,"dose: 50.0 mg/kg/injection, schedule: Q01DX009 (ip), vehicle: other",4 of 6
same,survivor count,"dose: 100.0 mg/kg/injection, schedule: Q01DX009 (ip), vehicle: other",0 of 6
CCCC1c2c(ccc3c2OCO3)CC[N+]1(C)CCN(CC)CC (configuration not stated),survivor count,"dose: 50.0 mg/kg/injection, schedule: Q01DX005 (ip), vehicle: saline with Tween-80",3 of 6
same,survivor count,[6],0 of 6
same,survivor count,[7],0 of 6
Cc1cc(N(CCOS(C)(=O)=O)CCOS(C)(=O)=O)ccc1C=O,survivor count,"dose: 25.0 mg/kg/injection, schedule: Q01DX009 (ip), vehicle: Klucel (hydroxypropylcellulose) (HPC)",6 of 6
same,survivor count,"dose: 50.0 mg/kg/injection, schedule: Q01DX009 (ip), vehicle: Klucel (hydroxypropylcellulose) (HPC)",4 of 6 and 6 of 6
same,survivor count,"dose: 100.0 mg/kg/injection, schedule: Q01DX009 (ip), vehicle: Klucel (hydroxypropylcellulose) (HPC)",1 of 6
same,survivor count,"dose: 200.0 mg/kg/injection, schedule: Q01DX009 (ip), vehicle: Klucel (hydroxypropylcellulose) (HPC)",0 of 6
Nc1cc2ncccc2c2ccccc12,survivor count,[8],6 of 6
O=C1C[CH]([Ge](=[O])[O][Ge](=[O])[CH]2CC(=O)NC(=O)N2)NC(=O)N1 (configuration not stated),T/C,"dose: 60.0 mg/kg/injection, schedule: Q01DX005 (ip), vehicle: water",133 % of control
